The supplement of paper PMC12067093, “Discovery and optimisation of a covalent ligand for TRIM25 and its application to targeted protein ubiquitination” (Chemical Science, 2025)
This is one part of the list.

The chains behind the UniProt entries cited, without tags or fusion partners. Where a name states a change or a piece, a line headed by the entry shows the natural chain unless it says otherwise.
UniProt Q8TAT6: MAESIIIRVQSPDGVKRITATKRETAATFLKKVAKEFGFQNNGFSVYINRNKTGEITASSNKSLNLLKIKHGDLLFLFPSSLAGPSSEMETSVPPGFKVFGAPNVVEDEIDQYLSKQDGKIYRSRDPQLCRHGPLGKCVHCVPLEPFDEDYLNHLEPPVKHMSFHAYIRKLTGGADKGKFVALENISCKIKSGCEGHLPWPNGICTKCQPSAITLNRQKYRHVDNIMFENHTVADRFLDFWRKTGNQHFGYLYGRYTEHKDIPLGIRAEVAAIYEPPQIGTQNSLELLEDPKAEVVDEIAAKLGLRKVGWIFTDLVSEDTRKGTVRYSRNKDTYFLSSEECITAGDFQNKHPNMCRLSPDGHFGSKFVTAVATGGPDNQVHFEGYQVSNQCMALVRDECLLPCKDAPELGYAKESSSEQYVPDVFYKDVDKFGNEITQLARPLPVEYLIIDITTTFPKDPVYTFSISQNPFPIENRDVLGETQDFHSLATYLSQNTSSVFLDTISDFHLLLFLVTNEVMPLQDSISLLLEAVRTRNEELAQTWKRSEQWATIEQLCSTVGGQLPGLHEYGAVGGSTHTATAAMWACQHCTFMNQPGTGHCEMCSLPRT
UniProt Q86UT6, whole entry, looked up: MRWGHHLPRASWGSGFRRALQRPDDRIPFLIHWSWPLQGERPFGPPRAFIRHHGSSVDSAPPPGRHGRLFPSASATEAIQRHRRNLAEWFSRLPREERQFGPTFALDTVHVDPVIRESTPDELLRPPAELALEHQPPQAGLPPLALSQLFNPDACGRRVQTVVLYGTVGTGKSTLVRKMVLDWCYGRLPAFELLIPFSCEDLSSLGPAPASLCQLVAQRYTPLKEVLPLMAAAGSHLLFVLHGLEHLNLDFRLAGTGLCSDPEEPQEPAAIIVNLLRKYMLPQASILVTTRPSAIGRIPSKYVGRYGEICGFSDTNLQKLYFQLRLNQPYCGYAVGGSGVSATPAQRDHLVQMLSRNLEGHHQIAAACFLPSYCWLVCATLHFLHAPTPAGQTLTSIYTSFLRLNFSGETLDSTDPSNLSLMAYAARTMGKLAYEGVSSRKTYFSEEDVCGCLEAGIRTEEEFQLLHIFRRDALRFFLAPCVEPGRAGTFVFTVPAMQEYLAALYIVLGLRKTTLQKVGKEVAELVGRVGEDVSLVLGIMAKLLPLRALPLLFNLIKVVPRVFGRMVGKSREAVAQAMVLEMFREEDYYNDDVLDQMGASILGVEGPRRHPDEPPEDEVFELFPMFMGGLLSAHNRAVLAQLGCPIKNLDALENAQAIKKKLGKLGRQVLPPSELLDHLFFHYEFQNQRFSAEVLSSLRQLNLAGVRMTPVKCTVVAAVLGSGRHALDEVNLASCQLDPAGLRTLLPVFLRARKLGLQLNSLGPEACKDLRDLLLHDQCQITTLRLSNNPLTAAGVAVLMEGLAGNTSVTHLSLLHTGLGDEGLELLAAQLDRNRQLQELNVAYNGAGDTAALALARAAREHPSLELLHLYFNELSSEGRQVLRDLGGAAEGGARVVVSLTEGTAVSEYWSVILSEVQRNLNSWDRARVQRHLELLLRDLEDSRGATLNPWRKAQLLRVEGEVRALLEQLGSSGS
UniProt P46459: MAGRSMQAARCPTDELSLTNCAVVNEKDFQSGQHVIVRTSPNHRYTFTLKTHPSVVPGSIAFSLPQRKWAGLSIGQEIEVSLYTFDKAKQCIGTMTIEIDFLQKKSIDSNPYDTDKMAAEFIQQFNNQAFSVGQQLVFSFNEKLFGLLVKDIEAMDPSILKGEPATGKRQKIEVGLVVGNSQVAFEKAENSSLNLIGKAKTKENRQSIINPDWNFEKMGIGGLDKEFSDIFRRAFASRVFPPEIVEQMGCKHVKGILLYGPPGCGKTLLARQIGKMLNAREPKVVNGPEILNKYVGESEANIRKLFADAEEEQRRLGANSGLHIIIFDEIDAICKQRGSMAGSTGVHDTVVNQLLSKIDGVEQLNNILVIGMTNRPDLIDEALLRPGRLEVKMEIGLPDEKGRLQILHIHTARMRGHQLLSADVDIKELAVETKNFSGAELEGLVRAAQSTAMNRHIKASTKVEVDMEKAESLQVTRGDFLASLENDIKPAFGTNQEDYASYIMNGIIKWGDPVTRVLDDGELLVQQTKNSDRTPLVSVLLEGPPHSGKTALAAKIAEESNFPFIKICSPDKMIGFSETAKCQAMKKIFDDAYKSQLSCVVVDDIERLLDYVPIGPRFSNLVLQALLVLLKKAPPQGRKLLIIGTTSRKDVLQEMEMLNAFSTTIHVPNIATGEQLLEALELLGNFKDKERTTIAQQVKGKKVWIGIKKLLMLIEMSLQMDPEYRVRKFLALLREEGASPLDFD
UniProt Q76FK4: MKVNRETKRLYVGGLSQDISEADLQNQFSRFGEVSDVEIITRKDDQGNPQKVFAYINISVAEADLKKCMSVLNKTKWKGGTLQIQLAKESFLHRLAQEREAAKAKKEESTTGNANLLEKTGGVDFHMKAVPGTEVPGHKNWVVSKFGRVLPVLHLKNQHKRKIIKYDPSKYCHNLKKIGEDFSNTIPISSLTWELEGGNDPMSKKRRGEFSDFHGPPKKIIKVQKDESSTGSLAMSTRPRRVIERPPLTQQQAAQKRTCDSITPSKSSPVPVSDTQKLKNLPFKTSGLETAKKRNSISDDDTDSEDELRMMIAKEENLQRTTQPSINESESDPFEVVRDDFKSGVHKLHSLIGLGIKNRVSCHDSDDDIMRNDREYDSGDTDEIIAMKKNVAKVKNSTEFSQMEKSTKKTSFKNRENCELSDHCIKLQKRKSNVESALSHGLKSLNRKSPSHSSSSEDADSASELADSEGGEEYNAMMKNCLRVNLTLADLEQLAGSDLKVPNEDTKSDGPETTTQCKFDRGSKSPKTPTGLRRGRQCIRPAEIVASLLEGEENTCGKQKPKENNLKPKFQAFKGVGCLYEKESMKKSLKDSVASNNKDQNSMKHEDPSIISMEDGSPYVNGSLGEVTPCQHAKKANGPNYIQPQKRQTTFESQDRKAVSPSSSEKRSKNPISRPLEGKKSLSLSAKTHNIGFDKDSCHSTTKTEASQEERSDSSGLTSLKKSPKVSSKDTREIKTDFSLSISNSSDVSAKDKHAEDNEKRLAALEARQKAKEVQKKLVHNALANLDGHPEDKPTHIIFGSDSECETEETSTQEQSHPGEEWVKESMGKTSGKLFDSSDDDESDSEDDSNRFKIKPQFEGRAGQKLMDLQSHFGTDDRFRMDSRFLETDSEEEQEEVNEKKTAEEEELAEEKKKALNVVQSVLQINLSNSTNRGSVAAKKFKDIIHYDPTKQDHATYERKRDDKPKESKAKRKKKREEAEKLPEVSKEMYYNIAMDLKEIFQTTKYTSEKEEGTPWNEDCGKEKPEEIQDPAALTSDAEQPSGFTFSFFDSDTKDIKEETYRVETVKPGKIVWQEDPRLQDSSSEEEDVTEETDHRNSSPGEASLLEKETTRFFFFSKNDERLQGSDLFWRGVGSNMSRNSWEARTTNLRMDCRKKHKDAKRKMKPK
UniProt Q13287: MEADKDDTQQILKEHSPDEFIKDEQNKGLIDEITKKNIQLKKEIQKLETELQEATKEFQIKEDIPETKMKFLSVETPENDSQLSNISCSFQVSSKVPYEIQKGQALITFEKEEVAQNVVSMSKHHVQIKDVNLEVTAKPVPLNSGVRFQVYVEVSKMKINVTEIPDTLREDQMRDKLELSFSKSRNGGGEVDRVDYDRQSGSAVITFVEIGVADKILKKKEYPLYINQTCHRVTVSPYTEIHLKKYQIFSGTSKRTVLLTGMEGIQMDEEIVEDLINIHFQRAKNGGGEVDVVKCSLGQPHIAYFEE
UniProt Q96L73: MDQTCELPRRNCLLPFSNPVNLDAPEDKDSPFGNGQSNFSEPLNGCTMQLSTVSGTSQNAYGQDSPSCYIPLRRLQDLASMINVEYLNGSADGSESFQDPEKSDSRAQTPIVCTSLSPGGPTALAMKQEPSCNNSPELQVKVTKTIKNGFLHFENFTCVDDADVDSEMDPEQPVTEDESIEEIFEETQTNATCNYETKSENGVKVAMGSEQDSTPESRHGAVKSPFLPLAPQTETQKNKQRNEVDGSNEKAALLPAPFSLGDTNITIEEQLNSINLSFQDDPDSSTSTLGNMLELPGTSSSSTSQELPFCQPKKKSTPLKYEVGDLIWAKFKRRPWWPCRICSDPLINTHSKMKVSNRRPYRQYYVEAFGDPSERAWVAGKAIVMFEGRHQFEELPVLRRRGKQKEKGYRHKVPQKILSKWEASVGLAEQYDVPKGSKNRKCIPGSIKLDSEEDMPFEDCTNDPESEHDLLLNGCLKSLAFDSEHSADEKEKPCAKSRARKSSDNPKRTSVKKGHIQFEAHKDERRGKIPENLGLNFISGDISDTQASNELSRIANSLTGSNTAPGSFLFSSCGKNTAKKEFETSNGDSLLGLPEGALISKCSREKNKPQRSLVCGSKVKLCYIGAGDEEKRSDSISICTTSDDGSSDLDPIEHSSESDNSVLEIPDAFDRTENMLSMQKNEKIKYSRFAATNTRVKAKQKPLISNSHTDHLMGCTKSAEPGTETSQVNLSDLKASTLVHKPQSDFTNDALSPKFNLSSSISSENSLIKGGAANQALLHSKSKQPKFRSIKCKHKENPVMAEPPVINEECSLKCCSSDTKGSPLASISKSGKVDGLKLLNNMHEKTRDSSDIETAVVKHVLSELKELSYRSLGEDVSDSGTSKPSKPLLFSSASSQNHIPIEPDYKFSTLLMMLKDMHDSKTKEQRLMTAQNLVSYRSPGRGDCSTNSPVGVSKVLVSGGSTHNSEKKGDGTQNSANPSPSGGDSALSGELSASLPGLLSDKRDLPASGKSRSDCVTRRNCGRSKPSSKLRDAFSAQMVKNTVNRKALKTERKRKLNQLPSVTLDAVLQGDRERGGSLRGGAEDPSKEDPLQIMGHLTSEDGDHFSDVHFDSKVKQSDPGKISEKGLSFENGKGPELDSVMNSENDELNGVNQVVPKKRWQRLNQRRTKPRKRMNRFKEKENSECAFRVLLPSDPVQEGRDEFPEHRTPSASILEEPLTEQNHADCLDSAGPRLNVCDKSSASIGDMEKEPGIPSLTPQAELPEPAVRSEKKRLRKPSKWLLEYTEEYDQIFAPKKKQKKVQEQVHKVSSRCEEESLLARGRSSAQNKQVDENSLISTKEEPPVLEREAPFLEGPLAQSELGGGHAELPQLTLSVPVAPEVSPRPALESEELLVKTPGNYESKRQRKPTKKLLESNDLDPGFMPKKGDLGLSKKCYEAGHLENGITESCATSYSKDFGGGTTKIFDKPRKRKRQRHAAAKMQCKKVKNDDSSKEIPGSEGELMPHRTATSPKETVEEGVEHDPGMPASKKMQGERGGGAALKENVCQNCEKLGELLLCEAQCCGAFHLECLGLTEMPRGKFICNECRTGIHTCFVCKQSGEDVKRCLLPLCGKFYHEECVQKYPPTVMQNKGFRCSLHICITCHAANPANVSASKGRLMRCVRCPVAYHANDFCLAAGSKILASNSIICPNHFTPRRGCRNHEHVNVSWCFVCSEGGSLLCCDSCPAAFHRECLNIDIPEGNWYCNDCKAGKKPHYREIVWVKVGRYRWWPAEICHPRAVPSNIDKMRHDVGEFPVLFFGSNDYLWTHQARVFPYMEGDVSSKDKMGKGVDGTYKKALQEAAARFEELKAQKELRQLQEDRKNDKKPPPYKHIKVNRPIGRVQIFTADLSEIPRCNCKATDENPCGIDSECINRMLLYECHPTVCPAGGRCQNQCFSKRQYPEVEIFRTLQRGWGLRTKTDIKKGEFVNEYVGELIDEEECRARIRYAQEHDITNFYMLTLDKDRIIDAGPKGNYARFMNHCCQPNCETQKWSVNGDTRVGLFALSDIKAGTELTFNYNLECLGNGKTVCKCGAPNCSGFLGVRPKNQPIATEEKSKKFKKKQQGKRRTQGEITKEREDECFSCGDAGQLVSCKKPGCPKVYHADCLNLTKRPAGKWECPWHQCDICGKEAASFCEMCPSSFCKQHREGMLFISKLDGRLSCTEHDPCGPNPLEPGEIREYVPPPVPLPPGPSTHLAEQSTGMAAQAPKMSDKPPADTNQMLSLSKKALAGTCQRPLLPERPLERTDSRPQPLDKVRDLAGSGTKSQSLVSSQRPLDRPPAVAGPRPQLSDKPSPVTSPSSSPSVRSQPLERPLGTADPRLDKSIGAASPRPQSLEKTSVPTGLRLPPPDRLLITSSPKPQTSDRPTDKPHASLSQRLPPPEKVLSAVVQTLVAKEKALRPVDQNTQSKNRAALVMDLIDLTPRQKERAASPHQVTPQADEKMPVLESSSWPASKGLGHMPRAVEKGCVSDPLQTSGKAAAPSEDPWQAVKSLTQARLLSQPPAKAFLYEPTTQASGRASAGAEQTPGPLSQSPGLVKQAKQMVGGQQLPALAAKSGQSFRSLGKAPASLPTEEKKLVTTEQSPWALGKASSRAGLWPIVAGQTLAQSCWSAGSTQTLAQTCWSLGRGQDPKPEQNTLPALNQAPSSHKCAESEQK

Compound: Cc1cc(ccc1-c1ccccc1)C(=O)N1CCCN(CC1)C(=O)CCl [compound 10]
Test: probe-labelled cysteine peptide fold change vs DMSO (competition) (log2 fold change); higher = less target engagement (more negative = stronger competition)
Conditions: THP-1, incubation time: 4 h
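Further: competitive profiling in live THP-1 cells: cysteine peptides tagged with an iodoacetamide desthiobiotin (IA-DTB) probe, intensity after compound treatment relative to DMSO-treated cells.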

Target	probe-labelled cysteine peptide fold change (10 µM)	probe-labelled cysteine peptide fold change (50 µM)
NPLOC4_Q8TAT6_341_DTYFLSSEECITAGDFQNK (UniProt Q8TAT6)	-0.0801	0.217
NSMAF_Q92636_803+809_EGTVNIWDLTTATLMHQIPCHSGIVCDTAFSPDSR (UniProt Q92636)	0.0915	-0.0821
NPLOC4_Q8TAT6_399_DECLLPCK (UniProt Q8TAT6)	0.0365	0.413
NR2F6_P10588_316_AIALFTPDACGLSDPAHVESLQEK (UniProt P10588)	-0.711	-1.1
NOL6_Q9H6R4_633_LIPHQVVTHLLALHADIPETCVHYVGGPLDALIQGLK (UniProt Q9H6R4)	0.227	0.299
NOM1_Q5C9Z4_65_LAVEEFVHATSEGEAPGGCEGR (UniProt Q5C9Z4)	0.202	-0.0786
NSRP1_Q9H0G5_232_CILQTDVK (UniProt Q9H0G5)	-0.534	0.172
NOCT_Q9UK39_322_IPLIVCGDFNAEPTEEVYK (UniProt Q9UK39)	0.0663	-0.129
NLRX1_Q86UT6_779_DLRDLLLHDQCQITTLR (UniProt Q86UT6)	-0.0237	-0.121
NMD3_Q96D46_383_THLGHLLNPGDLVLGFDLANCNLNDEHVNK (UniProt Q96D46)	0.0426	-0.0789
NOB1_Q9ULX3_288_VFCSHCGNK (UniProt Q9ULX3)	0.179	0.00394
NSF_P46459_91_QCIGTMTIEIDFLQK (UniProt P46459)	0.0665	0.455
NOCT_Q9UK39_136_TDCPSTHPPIR (UniProt Q9UK39)	-0.188	-0.285
NSMAF_Q92636_809_EGTVNIWDLTTATLMHQIPCHSGIVCDTAFSPDSR (UniProt Q92636)	-0.244	-0.18
NOL8_Q76FK4_556_QCIRPAEIVASLLEGEENTCGK (UniProt Q76FK4)	-0.0448	-0.418
NOL11_Q9H8H0_578_ESTSCPVVQK (UniProt Q9H8H0)	-0.0261	0.11
NOL9_Q5SY16_605_GYTNGPILLAQTPICDCLGFGICR (UniProt Q5SY16)	0.429	0.345
NOL8_Q76FK4_1020_EEGTPWNEDCGK (UniProt Q76FK4)	-0.0193	-0.0417
NRDC_O43847_1027_LKECEDTHLGEEVDR (UniProt O43847)	-0.162	-0.281

Target	probe-labelled cysteine peptide fold change (10 µM)	probe-labelled cysteine peptide fold change (50 µM)
NOL6_Q9H6R4_486_LQAACHR (UniProt Q9H6R4)	0.0765	0.135
NPAT_Q14207_1172_ENELCSDVER (UniProt Q14207)	-0.122	-0.109
NSF_P46459_11+21_CPTDELSLTNCAVVNEK (UniProt P46459)	-0.491	-0.0322
NLRX1_Q86UT6_481_FFLAPCVEPGR (UniProt Q86UT6)	0.293	0.279
NMD3_Q96D46_321_QLEEFIVMECSIVQDIK (UniProt Q96D46)	0.356	0.624
NTMT1_Q9BV86_184_DNMAQEGVILDDVDSSVCR (UniProt Q9BV86)	-0.168	-0.0708
NSL1_Q96IY1_53_RAVTEMLQLCGR (UniProt Q96IY1)	-0.161	0.195
NPEPL1_Q8NDH3_404+414_CGDLVHPLVYCPELHFSEFTSAVADMK (UniProt Q8NDH3)	-0.13	0.076
NMI_Q13287_295_CSLGQPHIAYFEE (UniProt Q13287)	0.00396	-0.203
NLRP2_Q9NX02_692_SQDDQHMLPFWTDLCSIFGSNK (UniProt Q9NX02)	-0.0707	-0.373
NOP58_Q9Y2X3_439_TYDPSGDSTLPTCSK (UniProt Q9Y2X3)	-0.00873	-0.114
NMD3_Q96D46_321_QLEEFIVMECSIVQDIKR (UniProt Q96D46)	0.131	-0.0466
NSD1_Q96L73_2072_CGAPNCSGFLGVRPK (UniProt Q96L73)	-0.0183	0.0106
NPM3_O75607_41_VPAPVTMDSFFFGCELSGHTR (UniProt O75607)	-0.0603	0.0957
NRBP2_Q9NSY0_34_EREDESEDESDILEESPCGR (UniProt Q9NSY0)	-0.476	-0.713
NSD1_Q96L73_2508_GCVSDPLQTSGK (UniProt Q96L73)	-0.278	-0.221
NSMAF_Q92636_721_ICWHDNR (UniProt Q92636)	-0.00398	0.00124
NR2C1_P13056_185_QDSVQCER (UniProt P13056)	-0.00946	-0.317
NSD3_Q9BZ95_173_ELFESSLCGDLLNEVQASEHTK (UniProt Q9BZ95)	-0.166	0.093
